Results taken from the supplement of paper PMC12819154, “High-throughput peptide-centric local stability assay extends protein–ligand identification to membrane proteins, tissues and bacteria” (Nature Structural & Molecular Biology, 2025).
Some of the results follow. Most values lie at the level of the controls, where differences are scatter.

Protein sequences, listed by entry. Tags and fused reporters are not part of them. Lines headed by an entry give the natural chain unless they say otherwise; changes in a name come on top.
UniProt Q8WW59: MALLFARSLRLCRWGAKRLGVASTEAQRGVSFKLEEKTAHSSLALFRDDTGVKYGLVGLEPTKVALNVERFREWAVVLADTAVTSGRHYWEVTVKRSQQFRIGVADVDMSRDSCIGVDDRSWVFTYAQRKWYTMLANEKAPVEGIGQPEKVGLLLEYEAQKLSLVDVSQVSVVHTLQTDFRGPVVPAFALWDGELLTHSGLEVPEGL
UniProt Q8TC07: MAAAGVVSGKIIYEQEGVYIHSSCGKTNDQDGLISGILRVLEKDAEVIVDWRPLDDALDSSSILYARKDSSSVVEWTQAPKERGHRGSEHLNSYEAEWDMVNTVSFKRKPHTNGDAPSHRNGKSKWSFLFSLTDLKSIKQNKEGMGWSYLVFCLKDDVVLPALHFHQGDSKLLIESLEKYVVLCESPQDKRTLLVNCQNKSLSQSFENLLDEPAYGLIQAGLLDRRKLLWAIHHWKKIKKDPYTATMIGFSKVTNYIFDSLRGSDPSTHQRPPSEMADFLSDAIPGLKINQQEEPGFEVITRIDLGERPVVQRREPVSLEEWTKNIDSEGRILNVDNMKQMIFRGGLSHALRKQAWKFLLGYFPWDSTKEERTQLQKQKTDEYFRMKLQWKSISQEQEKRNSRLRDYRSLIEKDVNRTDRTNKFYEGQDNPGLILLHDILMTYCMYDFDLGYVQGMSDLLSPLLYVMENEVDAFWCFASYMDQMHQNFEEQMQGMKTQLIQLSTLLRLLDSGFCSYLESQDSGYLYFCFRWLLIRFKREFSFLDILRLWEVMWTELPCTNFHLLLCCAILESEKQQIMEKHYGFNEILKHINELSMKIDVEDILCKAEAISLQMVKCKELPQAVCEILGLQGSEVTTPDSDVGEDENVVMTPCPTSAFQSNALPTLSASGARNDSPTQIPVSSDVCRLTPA
UniProt Q92613: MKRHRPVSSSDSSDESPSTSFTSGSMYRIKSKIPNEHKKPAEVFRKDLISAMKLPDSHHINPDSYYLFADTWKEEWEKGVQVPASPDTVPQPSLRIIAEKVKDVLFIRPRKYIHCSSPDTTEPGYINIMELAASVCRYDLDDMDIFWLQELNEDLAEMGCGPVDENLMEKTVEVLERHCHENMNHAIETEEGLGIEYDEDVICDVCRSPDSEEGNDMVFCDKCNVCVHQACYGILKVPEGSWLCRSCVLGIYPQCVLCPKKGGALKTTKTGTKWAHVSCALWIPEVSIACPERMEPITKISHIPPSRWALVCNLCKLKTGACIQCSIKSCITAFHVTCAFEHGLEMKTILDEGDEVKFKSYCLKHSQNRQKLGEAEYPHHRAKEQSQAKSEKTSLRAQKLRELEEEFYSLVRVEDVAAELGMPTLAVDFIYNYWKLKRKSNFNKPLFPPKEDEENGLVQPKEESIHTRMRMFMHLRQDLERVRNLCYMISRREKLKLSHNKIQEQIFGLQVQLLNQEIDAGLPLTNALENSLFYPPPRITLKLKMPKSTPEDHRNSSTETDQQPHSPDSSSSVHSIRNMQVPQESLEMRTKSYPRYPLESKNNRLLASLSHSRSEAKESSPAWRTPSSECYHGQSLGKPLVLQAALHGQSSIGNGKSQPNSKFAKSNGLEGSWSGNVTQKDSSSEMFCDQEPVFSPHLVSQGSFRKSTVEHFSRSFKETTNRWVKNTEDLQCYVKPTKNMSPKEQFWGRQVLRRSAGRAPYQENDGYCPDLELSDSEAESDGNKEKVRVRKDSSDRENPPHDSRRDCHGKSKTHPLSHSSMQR
UniProt Q92628: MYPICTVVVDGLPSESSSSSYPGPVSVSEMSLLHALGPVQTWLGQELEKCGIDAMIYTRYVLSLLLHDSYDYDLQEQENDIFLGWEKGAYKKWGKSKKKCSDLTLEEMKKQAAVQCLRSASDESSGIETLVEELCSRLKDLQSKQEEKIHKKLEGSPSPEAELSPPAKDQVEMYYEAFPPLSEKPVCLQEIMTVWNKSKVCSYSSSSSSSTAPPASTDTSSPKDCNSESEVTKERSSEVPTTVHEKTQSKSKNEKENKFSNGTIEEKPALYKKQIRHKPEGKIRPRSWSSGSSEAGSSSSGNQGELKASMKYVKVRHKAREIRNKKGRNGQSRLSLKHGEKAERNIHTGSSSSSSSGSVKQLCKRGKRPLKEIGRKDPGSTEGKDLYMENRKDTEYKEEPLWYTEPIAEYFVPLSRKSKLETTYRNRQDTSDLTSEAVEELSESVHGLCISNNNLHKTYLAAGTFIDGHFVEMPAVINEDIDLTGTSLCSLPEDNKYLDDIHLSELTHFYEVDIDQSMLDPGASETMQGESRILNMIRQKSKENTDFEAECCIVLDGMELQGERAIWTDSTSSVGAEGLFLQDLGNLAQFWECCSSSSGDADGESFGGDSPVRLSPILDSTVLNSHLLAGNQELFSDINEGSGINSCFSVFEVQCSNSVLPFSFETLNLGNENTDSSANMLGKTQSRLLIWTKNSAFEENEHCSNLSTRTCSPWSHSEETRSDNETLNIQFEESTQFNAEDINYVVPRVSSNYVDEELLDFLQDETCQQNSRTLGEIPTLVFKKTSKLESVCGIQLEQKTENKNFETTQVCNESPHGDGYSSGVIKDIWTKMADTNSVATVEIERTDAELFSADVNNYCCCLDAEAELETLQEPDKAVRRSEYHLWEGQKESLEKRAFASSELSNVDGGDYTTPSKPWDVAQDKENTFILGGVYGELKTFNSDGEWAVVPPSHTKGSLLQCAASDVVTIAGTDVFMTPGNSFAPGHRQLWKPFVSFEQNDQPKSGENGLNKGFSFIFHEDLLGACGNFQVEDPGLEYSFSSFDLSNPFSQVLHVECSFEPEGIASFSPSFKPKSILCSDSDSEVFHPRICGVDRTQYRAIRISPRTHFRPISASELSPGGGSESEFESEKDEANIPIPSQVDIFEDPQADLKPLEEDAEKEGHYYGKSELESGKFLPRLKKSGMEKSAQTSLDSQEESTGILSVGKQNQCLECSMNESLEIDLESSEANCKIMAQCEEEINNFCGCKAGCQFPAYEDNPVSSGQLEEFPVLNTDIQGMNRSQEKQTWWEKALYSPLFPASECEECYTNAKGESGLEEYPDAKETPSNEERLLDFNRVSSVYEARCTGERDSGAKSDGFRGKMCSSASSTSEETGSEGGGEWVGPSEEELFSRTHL
UniProt Q92681: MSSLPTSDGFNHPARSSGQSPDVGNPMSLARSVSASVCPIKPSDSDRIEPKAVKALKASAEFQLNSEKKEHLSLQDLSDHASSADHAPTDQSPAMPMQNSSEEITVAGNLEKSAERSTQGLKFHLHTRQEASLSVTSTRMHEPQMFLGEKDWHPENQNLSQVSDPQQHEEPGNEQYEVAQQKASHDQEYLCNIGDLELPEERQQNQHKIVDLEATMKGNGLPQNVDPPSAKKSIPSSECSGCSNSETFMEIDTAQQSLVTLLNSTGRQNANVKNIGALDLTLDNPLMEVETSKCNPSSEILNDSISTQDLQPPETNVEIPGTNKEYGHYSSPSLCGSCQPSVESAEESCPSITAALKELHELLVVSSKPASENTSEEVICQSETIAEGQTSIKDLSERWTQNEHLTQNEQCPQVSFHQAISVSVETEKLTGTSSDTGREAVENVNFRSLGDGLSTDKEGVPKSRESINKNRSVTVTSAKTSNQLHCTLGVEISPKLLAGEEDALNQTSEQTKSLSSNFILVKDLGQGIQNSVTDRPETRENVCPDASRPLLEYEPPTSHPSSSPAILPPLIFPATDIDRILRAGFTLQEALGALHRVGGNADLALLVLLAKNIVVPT
UniProt Q8WXH5: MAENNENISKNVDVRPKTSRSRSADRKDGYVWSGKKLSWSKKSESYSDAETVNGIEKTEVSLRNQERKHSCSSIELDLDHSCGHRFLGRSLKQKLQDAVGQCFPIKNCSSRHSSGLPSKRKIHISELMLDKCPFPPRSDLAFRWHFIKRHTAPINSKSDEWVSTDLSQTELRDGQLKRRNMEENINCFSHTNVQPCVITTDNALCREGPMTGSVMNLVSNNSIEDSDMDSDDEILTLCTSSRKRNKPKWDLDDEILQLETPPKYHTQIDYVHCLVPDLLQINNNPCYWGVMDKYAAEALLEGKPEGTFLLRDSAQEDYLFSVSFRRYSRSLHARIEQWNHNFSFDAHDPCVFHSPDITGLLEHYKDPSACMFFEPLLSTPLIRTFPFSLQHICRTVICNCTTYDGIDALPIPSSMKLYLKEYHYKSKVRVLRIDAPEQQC
UniProt Q8WVK2: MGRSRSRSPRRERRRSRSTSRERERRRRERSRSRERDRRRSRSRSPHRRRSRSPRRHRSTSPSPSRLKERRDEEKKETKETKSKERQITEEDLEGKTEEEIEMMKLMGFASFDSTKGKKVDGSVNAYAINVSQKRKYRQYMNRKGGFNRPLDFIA
UniProt Q8TD31: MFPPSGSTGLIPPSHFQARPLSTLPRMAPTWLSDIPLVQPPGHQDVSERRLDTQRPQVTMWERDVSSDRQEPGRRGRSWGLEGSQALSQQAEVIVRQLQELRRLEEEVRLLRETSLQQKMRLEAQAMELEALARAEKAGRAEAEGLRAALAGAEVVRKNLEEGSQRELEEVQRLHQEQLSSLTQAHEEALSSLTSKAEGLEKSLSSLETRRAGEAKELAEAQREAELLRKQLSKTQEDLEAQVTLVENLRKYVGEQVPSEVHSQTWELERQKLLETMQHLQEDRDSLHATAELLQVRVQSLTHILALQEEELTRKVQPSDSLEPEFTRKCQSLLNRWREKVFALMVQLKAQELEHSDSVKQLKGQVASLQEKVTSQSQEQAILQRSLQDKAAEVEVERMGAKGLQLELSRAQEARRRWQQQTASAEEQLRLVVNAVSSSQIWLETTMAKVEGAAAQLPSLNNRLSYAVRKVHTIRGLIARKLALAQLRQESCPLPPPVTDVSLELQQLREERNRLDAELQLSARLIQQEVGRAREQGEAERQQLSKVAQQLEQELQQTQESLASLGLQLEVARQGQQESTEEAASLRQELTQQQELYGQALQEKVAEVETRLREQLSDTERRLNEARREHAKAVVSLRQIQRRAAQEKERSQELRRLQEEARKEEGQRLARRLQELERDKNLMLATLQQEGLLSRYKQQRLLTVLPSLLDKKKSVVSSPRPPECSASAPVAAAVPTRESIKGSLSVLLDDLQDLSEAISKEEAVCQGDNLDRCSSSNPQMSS
UniProt Q8WZA0: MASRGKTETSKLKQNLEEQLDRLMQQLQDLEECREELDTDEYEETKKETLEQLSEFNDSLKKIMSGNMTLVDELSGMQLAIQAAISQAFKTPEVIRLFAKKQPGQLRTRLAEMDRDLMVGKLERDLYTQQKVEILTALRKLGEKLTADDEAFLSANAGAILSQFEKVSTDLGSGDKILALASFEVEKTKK
UniProt Q92620: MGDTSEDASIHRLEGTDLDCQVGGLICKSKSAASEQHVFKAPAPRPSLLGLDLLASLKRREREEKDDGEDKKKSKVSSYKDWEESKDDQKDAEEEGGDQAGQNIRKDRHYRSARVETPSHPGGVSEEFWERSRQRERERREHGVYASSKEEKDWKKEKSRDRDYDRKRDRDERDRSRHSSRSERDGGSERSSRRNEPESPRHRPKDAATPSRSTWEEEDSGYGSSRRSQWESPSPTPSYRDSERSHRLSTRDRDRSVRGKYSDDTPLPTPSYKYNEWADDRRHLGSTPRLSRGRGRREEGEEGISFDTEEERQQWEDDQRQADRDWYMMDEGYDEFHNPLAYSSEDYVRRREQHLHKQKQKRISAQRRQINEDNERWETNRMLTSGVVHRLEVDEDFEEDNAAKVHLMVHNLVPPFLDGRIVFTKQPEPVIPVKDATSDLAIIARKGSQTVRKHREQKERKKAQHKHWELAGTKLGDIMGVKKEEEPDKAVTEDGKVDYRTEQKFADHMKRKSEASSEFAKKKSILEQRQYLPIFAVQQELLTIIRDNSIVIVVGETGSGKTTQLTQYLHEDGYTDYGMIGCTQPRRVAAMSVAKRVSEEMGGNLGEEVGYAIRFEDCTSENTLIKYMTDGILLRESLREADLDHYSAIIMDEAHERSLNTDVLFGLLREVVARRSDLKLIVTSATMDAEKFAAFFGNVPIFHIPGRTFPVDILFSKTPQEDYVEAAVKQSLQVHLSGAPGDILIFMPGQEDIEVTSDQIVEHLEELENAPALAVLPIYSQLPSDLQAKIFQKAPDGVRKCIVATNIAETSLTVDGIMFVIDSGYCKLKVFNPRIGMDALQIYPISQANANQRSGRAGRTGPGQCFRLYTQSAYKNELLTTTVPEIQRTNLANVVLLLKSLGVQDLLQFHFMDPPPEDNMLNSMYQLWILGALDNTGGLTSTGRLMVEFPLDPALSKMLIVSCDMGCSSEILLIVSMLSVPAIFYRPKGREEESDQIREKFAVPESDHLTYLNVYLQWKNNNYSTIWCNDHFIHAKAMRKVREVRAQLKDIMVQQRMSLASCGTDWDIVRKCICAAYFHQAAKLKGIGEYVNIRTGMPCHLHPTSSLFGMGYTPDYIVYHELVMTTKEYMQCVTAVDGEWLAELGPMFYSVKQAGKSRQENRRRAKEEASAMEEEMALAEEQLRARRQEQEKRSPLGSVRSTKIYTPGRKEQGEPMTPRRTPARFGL

Compound: CN[C@@H]1C[C@H]2O[C@@](C)([C@@H]1OC)n1c3ccccc3c3c4c(c5c6ccccc6n2c5c31)C(=O)NC4 [staurosporine]
Test: log2 fold change of tryptic peptide abundance, ligand vs vehicle (limited proteolysis) (log2 ratio); higher = more trypsin-susceptible (destabilized)
Conditions: ligand concentration: 20 uM; sample: K562 cleared lysate; digestion: 4 min, 22 C (HT-PELSA RT4min, Orbitrap Astral)

Row | Target | log2 fold change
1 | SPRYD4 (peptide sequence: DSCIGVDDR, peptide start residue: 112) (UniProt Q8WW59) | 0.258
2 | UniProt Q8TF30 (peptide sequence: FAVTCHDR, peptide start residue: 41) | 0.384
3 | UniProt Q92731 (peptide sequence: LANLLMLLSHVR, peptide start residue: 455) | 0.331
4 | CCDC12 (peptide sequence: KPDWDLK, peptide start residue: 111) (UniProt Q8WUD4) | -0.207
5 | KAT6B (peptide sequence: ERKTGFK, peptide start residue: 1264) (UniProt Q8WYB5) | 0.653
6 | PRCC (peptide sequence: GDDQLSGAQQWMTK, peptide start residue: 415) (UniProt Q92733) | -0.585
7 | TBC1D15 (peptide sequence: AEAISLQMVK, peptide start residue: 607) (UniProt Q8TC07) | 0.685
8 | JADE3 (peptide sequence: LLASLSHSR, peptide start residue: 605) (UniProt Q92613) | 0.393
9 | UniProt Q92628 (peptide sequence: RSEYHLWEGQK, peptide start residue: 880) | -0.35
10 | GTSF1 (peptide sequence: NHPDVASK, peptide start residue: 40) (UniProt Q8WW33) | -0.181
11 | RSC1A1 (peptide sequence: DLGQGIQNSVTDRPETR, peptide start residue: 523) (UniProt Q92681) | -0.282
12 | GNPDA2 (peptide sequence: TLAMDTILANAK, peptide start residue: 161) (UniProt Q8TDQ7) | -0.101
13 | PIBF1 (peptide sequence: DALEKHDQLLDR, peptide start residue: 430) (UniProt Q8WXW3) | 0.92
14 | NRGN (peptide sequence: KGPGPGGPGGAGVAR, peptide start residue: 54) (UniProt Q92686) | 0.172
15 | UniProt Q8TDH9 (peptide sequence: NMIHETNEHTLPK, peptide start residue: 81) | -1.5
16 | UniProt Q8WXH5 (peptide sequence: PEGTFLLR, peptide start residue: 399) | -0.054
17 | UniProt Q8TEB1 (peptide sequence: GSFSLGEQSR, peptide start residue: 146) | -0.361
18 | UTP15 (peptide sequence: VLDPTCTIK, peptide start residue: 380) (UniProt Q8TED0) | 0.192

From no. 10 to 12, copied from above:
Row | Target | log2 fold change
10 | GTSF1 (peptide sequence: NHPDVASK, peptide start residue: 40) (UniProt Q8WW33) | -0.181
11 | RSC1A1 (peptide sequence: DLGQGIQNSVTDRPETR, peptide start residue: 523) (UniProt Q92681) | -0.282
12 | GNPDA2 (peptide sequence: TLAMDTILANAK, peptide start residue: 161) (UniProt Q8TDQ7) | -0.101

(listing goes on)

Row | Target | log2 fold change
19 | RAB3IL1 (peptide sequence: SHYYISPSSR, peptide start residue: 322) (UniProt Q8TBN0) | 0.433
20 | ANKRD49 (peptide sequence: NNLEETAFDIARR, peptide start residue: 206) (UniProt Q8WVL7) | 0.608
21 | SNRNP27 (peptide sequence: VDGSVNAYAINVSQK, peptide start residue: 120) (UniProt Q8WVK2) | -0.685
22 | UniProt Q8TC92 (peptide sequence: AIYLSGYR, peptide start residue: 192) | -0.0214
23 | CCHCR1 (peptide sequence: VQSLTHILALQEEELTR, peptide start residue: 298) (UniProt Q8TD31) | 0.242
24 | LZIC (peptide sequence: DLYTQQKVEILTALRK, peptide start residue: 125) (UniProt Q8WZA0) | 0.0926
25 | DHX38 (peptide sequence: AVTEDGKVDYR, peptide start residue: 490) (UniProt Q92620) | 0.519
26 | UniProt Q8WUW1 (peptide sequence: EYIEIITSSIKK, peptide start residue: 20) | 0.352
27 | UniProt Q92615 (peptide sequence: YREPPALK, peptide start residue: 693) | 0.401
28 | NSMAF (peptide sequence: EHNVVAPYKIER, peptide start residue: 117) (UniProt Q92636) | -0.209
29 | RTN4IP1 (peptide sequence: RDPLHVK, peptide start residue: 103) (UniProt Q8WWV3) | 0.148
30 | STON2 (peptide sequence: SQNSSISSTTGK, peptide start residue: 342) (UniProt Q8WXE9) | -0.199
31 | RAB2B (peptide sequence: IGPQQSISTSVGPSASQR, peptide start residue: 187) (UniProt Q8WUD1) | -0.196
32 | PPP4R1 (peptide sequence: DCIAVLER, peptide start residue: 83) (UniProt Q8TF05) | 0.28
33 | UniProt Q8TCG1 (peptide sequence: SIAQLIEKEEQRK, peptide start residue: 776) | 0.429
34 | STYX (peptide sequence: SLSVHSGTTGSLKR, peptide start residue: 191) (UniProt Q8WUJ0) | 0.0847
35 | UniProt Q8TC56 (peptide sequence: KSSTHSSTK, peptide start residue: 498) | -0.566
36 | POC1B (peptide sequence: TPHPHEEKVETVEINPK, peptide start residue: 332) (UniProt Q8TC44) | 0.576
